## Library screen at single concentrations

Results are given as percent effect. How 0% and 100% were set is not recorded. Most values in the screen are low, and negative values occur. Compounds were drawn at random from those tested, without regard to their results.

Mtb cholesterol medium: 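Whole-cell growth test on Mycobacterium tuberculosis, read after 4 days in a medium based on cholesterol and the lipid DPPC; the read-out is not stated. Concentration: 500 µM. Direction is inferred from retests: higher values go with more growth inhibition. Of about 18,000 compounds tested this way, about 900 (5%) reached 50% or more in at least one test.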
Mtb glucose medium: 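Phenotypic screen: M. tuberculosis growth, glucose 7H9 medium, 3 days; the read-out is not stated. Compounds at 500 µM. Higher reads as more growth inhibition (inferred: compounds with an IC50 in retests scored well above the rest). About 18,000 compounds were tested under these conditions; 7.9% (about 1,400) showed 50% or more at least once.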

Compound	Mtb cholesterol medium	Mtb glucose medium
CCC(C)(C)NC(=O)C1CC(=O)N(CC(F)(F)F)C1 (configuration not stated)	-2.533	8.342
O=C(Cc1ccccn1)N[C@@H]1COCC[C@H]1O	17.68	5.085
CC(NC(=O)CNc1cc(F)cc(Br)c1)C(=O)N(C)C (configuration not stated)	58.66	61.59
Cc1ocnc1C(=O)Nc1cncc(Br)c1O	4.148	5.655
O=C(Nc1ccc2c(c1)C(=O)NC2=O)c1ccc(Br)o1	3.054	7.86
CC(c1ccccn1)N(C)C(=O)c1nccnc1N (configuration not stated)	8.654	9.654
Cn1nccc1CCNC(=O)CCc1cccnc1	-5.261	13.06
CN(C)c1cc(CNC(=O)N2CCC(O)CC2)ccn1	-5.644	-1.19
CC1CCCN(C(=O)c2cc(O)nc3ccccc23)C1 (configuration not stated)	-12.57	34.17
CS(=O)(=O)CC[S+]([O-])CCCc1ccc(Cl)cc1 (configuration not stated)	-18.28	-13.25
COc1cccnc1C(F)(F)F	0.1171	1.292
NC1CCOc2ccccc21 (configuration not stated)	16.36	10.49
O=C(Nc1nncs1)NC1CCCC1	11.65	9.806
CO[C@@H]1COCC[C@H]1N	5.219	9.63
FC(F)OC1CCNC1 (configuration not stated)	-1.914	6.317
Cn1nnc(NC(=O)c2ccc(C#N)cc2F)n1	8.664	9.184
Cc1nc(N)nc(N)c1I	-6.096	-7.862
O=S1(=O)CCN(Cc2nccn2C2CC2)CC1	-4.539	-10.59
Cn1ccnc1CC1CCNCC1	-6.505	-22.41
Cc1nc(N)nc(C)c1CC(=O)N[C@H]1C[C@@H]2OCC[C@H]12	5.056	14.74
CCC(C)OCC(=O)Nc1cn(C)cc(Br)c1=O (configuration not stated)	-22.69	-13.62
Cc1nnc(SCC(=O)NC2CC2)n1-c1ccccc1	0.7408	24.66
CC(c1nc(COc2ccc(F)cc2)no1)S(C)(=O)=O (configuration not stated)	46.17	55.73
CCOC(=O)N1CCC(NC(CO)c2ccco2)CC1 (configuration not stated)	1.097	18
NC(=O)CN(Cc1ccsc1)C1CC1	4.37	16.38
O=C(c1cc(C2CC2)on1)N1CCC2(CCOCC2)C1	45.58	57.49
NC1CC(c2cc(NCCCc3ncc[nH]3)ncn2)C1 (configuration not stated)	4.591	35.88
CS(=O)(=O)NCCOc1nc(-c2ccccc2Cl)no1	4.757	24.14
CN(C)S(=O)(=O)c1ccc(N)nc1	-0.5835	1.241
COCC1CNCCO1 (configuration not stated)	-6.68	-0.1086
CCC(CNC(=O)CN(C)CC(N)=O)c1ccccc1 (configuration not stated)	16.92	16.07
NCc1ccc2c(n1)CCCC2	-4.549	5.686
Cn1cc(CNC(=O)c2c[nH]c(=O)c(Br)c2)cn1	-28.32	-24.14
CCOc1cccc(N2CCNCC2)c1	10.18	23.34
CCCn1ccnc1CNC(=O)[C@H]1CC[C@@H](O)CC1	-11.51	-5.258
CSCc1ccc(C(=O)N(C)Cc2cnccn2)o1	-2.302	6.548
OC1(CNc2nc(-c3ccccc3)ns2)CCSC1 (configuration not stated)	92.18	73.37
CC(=O)NC(Cc1ccccc1)CN(C)C(C)=O (configuration not stated)	-6.454	-13.1
CCO[C@H]1CN(Cc2ccc(CC)cn2)C[C@@H]1O	9.555	32.02
CC(C)C1CCCCN1C(=O)CCS(C)(=O)=O (configuration not stated)	3.062	40.74
Cc1ccc(F)cc1CN1C(=O)CC(C)C1=O (configuration not stated)	-8.59	-5.427
COCC1CCN(C(=O)c2c(C)nn(C)c2C)C1 (configuration not stated)	-8.078	-4.605
c1cc2c(cc1CN1CCCC1)CNCCO2	-8.443	-13.57
CS(=O)(=O)C[C@H]1CCCN1	-6.96	-10.83
O=C(NC1CC1)N1CCCCC1CCO (configuration not stated)	2.286	9.71
O=C(Nc1ccccn1)c1ccc(-n2cnnn2)cc1	8.274	8.664
CCS(=O)(=O)CCNc1cc(C2CC(N)C2)ncn1 (configuration not stated)	6.503	12.62
NCc1cccc(N2CC=CC2)c1	-0.03348	-0.9862
O[C@H]1CC[C@@H](c2nc(C3CCOC3)n[nH]2)CC1 (some centres not stated)	0.1065	3.942
C[C@@H]1CN(C(=O)CN2CCCC2)CC[C@@]1(O)C1CC1	8.458	25.67
NCC(O)c1ccc(-c2ccccc2)cc1 (configuration not stated)	71.37	75.26
CCc1ccccc1CN1C(=O)CCC1=O	6.682	57.76
N[C@@H]1CCN(C(=O)CCc2ccc(F)cc2)C1	15.64	35.26
CNCc1nnc(C)o1	-6.661	3.53
CC(=O)c1ccc(S(=O)(=O)N[C@H]2CCCNC2)cc1	-10.76	-1.354
CC(C)(N)c1nc2c(c(=O)[nH]1)CCCCC2	-4.149	7.51
O=C(c1ccccc1)N1CC[C@H](CO)[C@@H](O)C1	-3.912	11.15
CSCc1cc(F)ccc1CNC(=O)c1cn[nH]c1C	35.52	57.98
CNC(=O)NC(=O)CCN1CCc2ccccc2C1	77.22	83.78
Cn1ccnc1C1CCCN(C(=O)C(C)(C)N)C1 (configuration not stated)	-7.21	-1.507
NCc1ccc(CN2CCCC2=O)cc1	15.61	7.322
CCC(=O)N1CCCN(C(=O)C(CC)(CC)CN)CC1	-3.475	2.804
CCOC(=O)CN1CCCCC1CNS(C)(=O)=O (configuration not stated)	-7.746	-14.47
NCC(=O)N(Cc1cccs1)Cc1cccs1	73.12	74.2
COc1cccc(NC(=O)CN(CC(N)=O)C(C)C)c1	3.833	2.086
CCc1ccc(C(C)=O)o1	-17.91	-30.31
CCCn1c(SCC(N)=O)nnc1C1CC1	-1.971	1.877
Cc1nsc(NC(=O)N2CCC(CN)CC2)n1	-1.962	10.53
CC1Cc2ccccc2N1CC(N)=O (configuration not stated)	7.969	19.7
CCOc1ccccc1C(=O)Nc1nnc[nH]1	-1.025	4.655
COCC(NC(=O)CNc1ccccc1)C(C)C (configuration not stated)	5.286	26.53
C1CC(NC2CCOCC2)CCN1	1.495	-6.475
NCC(=O)Nc1cccc(F)c1	-18.94	0.5016
N#Cc1nnc(-c2ccccc2)o1	40.16	28.03
CNCC(=O)NC(C)c1nc(-c2ccc(Br)cc2)no1 (configuration not stated)	-18.24	64.47
CCCS(=O)(=O)CC(=O)NC1CCN(CC(N)=O)CC1	18.19	12.85
COc1ccc(CN(C)S(C)(=O)=O)cc1C	32.29	40.29
CC(CO)(CO)NCc1cc(C(F)(F)F)ccc1Cl	-14.28	-2.412
Cc1nc(CNC(=O)N(C)Cc2ccncc2)cs1	5.166	10.84
Cn1ccnc1N1CCN(c2ccc(C#N)cn2)CC1	24.54	52.45
NC(=O)c1c[nH]nc1C1CCCNC1 (configuration not stated)	-11.34	-8.185
CN1N=C(C(=O)Nc2ccc(Cl)cn2)CCC1=O	-5.084	-4.407
Cn1ccc(CNC(=O)c2cccnc2C(F)(F)F)c1	-25.91	-4.511
Fc1ccc(Cn2ccnn2)c(Cl)c1	83	8.23

The last 7 entries again:

{"compound": "CC(CO)(CO)NCc1cc(C(F)(F)F)ccc1Cl", "Mtb cholesterol medium": -14.28, "Mtb glucose medium": -2.412}
{"compound": "Cc1nc(CNC(=O)N(C)Cc2ccncc2)cs1", "Mtb cholesterol medium": 5.166, "Mtb glucose medium": 10.84}
{"compound": "Cn1ccnc1N1CCN(c2ccc(C#N)cn2)CC1", "Mtb cholesterol medium": 24.54, "Mtb glucose medium": 52.45}
{"compound": "NC(=O)c1c[nH]nc1C1CCCNC1", "stereo": "configuration not stated", "Mtb cholesterol medium": -11.34, "Mtb glucose medium": -8.185}
{"compound": "CN1N=C(C(=O)Nc2ccc(Cl)cn2)CCC1=O", "Mtb cholesterol medium": -5.084, "Mtb glucose medium": -4.407}
{"compound": "Cn1ccc(CNC(=O)c2cccnc2C(F)(F)F)c1", "Mtb cholesterol medium": -25.91, "Mtb glucose medium": -4.511}
{"compound": "Fc1ccc(Cn2ccnn2)c(Cl)c1", "Mtb cholesterol medium": 83, "Mtb glucose medium": 8.23}

Data taken from ChEMBL document CHEMBL3988442, “University of Dundee, Small-Polar-MMV Screening Library” (2021).